# Assay results published in PubChem BioAssay (EPA / NIEHS).
# Chains of the proteins cited; added tags and fusions are not shown. Lines headed by an entry give the natural chain unless they say otherwise; changes in a name come on top.
# UniProt P42336, whole entry, looked up: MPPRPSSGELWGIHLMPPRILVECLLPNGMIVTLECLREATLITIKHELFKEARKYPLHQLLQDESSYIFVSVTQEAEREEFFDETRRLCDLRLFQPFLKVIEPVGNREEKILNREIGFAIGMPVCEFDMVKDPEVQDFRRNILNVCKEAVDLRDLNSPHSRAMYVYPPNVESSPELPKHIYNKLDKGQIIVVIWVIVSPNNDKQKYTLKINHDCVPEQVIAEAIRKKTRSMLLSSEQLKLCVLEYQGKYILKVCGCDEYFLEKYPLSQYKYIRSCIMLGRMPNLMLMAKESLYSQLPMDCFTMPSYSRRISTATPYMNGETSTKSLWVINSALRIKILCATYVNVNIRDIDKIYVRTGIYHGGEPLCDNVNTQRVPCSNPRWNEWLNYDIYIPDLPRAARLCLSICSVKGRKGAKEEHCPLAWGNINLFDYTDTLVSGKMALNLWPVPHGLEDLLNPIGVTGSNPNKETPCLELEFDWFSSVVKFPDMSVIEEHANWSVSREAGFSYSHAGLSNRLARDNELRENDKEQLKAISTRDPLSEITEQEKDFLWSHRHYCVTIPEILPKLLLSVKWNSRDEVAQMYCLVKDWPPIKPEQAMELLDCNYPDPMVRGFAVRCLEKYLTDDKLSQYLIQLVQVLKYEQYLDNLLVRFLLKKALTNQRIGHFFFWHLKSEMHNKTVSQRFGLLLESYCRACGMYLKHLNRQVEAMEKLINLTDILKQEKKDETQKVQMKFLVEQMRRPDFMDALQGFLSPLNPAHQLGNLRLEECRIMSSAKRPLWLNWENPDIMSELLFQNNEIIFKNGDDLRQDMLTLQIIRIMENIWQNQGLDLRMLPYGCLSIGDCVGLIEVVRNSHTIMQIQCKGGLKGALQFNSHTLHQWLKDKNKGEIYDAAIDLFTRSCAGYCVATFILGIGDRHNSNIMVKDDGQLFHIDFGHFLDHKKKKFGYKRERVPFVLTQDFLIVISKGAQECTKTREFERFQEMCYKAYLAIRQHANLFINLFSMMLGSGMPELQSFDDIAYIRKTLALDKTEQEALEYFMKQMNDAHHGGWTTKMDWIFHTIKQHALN
# UniProt P57717: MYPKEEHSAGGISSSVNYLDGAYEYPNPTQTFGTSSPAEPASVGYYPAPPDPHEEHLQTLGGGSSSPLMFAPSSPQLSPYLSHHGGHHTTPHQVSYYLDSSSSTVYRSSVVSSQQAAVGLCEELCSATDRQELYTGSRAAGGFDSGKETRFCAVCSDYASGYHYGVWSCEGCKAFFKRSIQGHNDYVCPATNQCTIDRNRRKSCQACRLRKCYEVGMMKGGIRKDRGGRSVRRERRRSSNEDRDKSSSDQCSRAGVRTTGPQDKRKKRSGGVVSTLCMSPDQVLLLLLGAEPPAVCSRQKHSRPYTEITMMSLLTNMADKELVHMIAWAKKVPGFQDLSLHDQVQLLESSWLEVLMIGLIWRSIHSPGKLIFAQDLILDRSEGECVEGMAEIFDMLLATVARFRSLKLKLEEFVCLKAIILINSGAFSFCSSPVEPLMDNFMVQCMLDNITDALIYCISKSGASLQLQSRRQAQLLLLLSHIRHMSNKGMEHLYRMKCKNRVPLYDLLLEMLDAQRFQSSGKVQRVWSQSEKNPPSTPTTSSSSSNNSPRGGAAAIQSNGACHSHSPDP
# UniProt Q92731, whole entry, looked up: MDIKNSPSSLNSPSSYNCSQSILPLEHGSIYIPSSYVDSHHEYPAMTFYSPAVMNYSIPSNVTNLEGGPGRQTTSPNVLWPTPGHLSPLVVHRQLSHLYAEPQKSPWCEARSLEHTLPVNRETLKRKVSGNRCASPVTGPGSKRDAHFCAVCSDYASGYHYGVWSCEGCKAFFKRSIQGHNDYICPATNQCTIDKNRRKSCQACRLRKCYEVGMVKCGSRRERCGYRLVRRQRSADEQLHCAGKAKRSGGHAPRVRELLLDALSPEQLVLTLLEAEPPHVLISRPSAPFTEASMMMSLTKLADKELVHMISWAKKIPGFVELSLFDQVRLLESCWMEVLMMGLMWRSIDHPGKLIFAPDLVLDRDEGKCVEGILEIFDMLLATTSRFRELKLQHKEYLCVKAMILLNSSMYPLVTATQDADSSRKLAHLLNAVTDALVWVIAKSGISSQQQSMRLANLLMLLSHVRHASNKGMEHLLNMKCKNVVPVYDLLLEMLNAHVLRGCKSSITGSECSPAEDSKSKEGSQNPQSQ
# UniProt P10275: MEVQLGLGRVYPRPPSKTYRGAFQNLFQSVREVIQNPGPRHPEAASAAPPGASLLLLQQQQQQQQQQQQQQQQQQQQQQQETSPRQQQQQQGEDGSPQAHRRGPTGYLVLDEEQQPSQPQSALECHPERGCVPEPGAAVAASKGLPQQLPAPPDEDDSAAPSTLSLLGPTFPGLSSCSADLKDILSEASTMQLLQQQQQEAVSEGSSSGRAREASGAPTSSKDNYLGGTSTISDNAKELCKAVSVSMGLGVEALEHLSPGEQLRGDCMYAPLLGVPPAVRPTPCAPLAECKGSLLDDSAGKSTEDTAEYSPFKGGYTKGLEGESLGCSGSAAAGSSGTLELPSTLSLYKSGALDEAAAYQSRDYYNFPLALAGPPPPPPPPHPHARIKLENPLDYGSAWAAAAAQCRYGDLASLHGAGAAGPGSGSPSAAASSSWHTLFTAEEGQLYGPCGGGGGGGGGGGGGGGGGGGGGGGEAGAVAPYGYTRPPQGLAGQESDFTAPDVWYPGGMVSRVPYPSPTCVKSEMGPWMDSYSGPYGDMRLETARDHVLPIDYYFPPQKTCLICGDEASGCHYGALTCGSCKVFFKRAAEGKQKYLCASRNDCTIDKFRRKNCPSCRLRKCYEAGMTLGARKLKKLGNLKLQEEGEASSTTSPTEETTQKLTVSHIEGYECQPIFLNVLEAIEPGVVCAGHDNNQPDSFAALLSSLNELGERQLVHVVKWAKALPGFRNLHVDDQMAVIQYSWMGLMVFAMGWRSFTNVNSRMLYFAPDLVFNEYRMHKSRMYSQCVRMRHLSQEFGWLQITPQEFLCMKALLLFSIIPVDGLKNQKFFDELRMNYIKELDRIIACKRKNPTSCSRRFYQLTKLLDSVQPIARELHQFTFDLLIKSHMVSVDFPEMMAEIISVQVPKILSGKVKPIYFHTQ
# UniProt P29350: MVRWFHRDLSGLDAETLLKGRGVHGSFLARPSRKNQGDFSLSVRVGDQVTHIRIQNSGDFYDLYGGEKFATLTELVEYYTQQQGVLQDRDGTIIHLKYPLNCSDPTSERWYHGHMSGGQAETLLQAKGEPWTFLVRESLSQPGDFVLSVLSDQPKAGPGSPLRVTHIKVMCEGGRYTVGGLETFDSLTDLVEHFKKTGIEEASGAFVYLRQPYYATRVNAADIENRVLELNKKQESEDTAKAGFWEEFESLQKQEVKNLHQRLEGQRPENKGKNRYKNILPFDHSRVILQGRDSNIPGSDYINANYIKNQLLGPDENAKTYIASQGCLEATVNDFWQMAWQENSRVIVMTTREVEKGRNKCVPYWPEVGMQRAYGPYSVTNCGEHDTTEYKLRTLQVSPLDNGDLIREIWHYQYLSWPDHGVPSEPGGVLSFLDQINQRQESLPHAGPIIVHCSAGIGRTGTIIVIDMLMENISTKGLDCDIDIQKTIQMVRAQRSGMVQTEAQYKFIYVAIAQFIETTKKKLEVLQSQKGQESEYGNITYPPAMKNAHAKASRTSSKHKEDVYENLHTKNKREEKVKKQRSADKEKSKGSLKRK
# UniProt P10276, whole entry, looked up: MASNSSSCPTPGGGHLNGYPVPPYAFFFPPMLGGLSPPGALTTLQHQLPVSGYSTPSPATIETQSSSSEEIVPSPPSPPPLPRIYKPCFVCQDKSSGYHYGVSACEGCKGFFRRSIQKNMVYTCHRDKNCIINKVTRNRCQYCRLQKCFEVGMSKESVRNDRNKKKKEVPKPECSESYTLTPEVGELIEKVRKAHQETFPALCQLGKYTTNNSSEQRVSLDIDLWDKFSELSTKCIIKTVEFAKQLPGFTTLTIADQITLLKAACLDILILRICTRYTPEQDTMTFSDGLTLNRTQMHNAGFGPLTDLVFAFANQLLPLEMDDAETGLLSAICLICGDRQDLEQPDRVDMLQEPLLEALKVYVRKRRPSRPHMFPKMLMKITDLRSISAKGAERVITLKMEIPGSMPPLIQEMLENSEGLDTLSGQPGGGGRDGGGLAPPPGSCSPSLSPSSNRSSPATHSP
# Inconclusive means that the source gave no clear call. Such entries were picked first, then a sample of the others. For some assays here: A potency beside an inconclusive call is a rough fit, not a confirmed value. Active and inactive are the calls of the source. The calls were made as follows: active = hit-call score of the fitted dose curve at least 0.9, where 1 is the maximum; inconclusive = response in the unintended direction; inactive = score below 0.9.
# Legend:
# [1] = target: human Phosphoinositide 3-kinase alpha (PI3Ka), PIK3CA (gene 5290) (UniProt P42336); assay: NVS_ENZ_hPI3Ka: NovaScreen (NVS) Enzymatic Assay for human Phosphoinositide 3-kinase alpha (PI3Ka) (AID 2283196)
# Outline: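 Enzyme activity as fluorescence after mobility-shift separation of substrate and product, 1 h reaction, recombinant human PI3Kα; concentration-response to 50 uM max for chemicals passing a 25 uM duplicate screen.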
# [2] = target: zebrafish Estrogen Receptor (ER1), esr1 (gene 259252) (UniProt P57717); assay: ATG_zfER1_XSP2: Attagene TRANS-FACTORIAL Multi-Species (XSP2) HepG2 Assay for zebrafish Estrogen Receptor (ER1) (AID 2283816)
# Outline: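 HepG2 cells transiently transfected with a GAL4-UAS reporter and a chimeric zebrafish ER1-Gal4 construct, dosed 24 h. Reporter mRNA quantified by RT-PCR, labelling, HpaI digestion and capillary electrophoresis, relative to DMSO.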
# [3] = test system: zebrafish Androgen Receptor (AR), gene 100005148; assay: ATG_zfAR_XSP2: Attagene TRANS-FACTORIAL Multi-Species (XSP2) HepG2 Assay for zebrafish Androgen Receptor (AR) (AID 2283825);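 also: reporter transcript measured by RT-PCR then capillary electrophoresis after 24 h; hits raise reporter mRNA above DMSO so AC50 reflects agonist-type gain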
# Outline: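 Zebrafish AR–GAL4 chimera transiently expressed with GAL4-UAS reporter in HepG2 cells, co-stimulated with 3 nM 6-alpha-fluorotestosterone and 1.5 nM norgestrel; 24 h dosing, reporter mRNA read by RT-PCR/capillary electrophoresis versus DMSO.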
# [4] = Tanguay_ZF_120hpf_SWIM_legacy: (Legacy) Oregon State University Tanguay Lab 120 Hour Post-fertilization zebrafish Assay for Swim Bladder Malformation (AID 2283654);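 also: swim bladder malformation in each larva scored yes or no under brightfield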
# Outline: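 Dechorionated Tropical 5D wild-type embryos, placed singly from 6 hpf, were statically exposed at 28C to 120 hpf with 0.64% DMSO final; swim bladder malformation was scored present/absent by brightfield microscopy, gain of signal relative to DMSO controls.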
# [5] = target: Estrogen receptor beta (Homo sapiens) (UniProt Q92731); assay: OT_ER_ERbERb_0480: Odyssey Thera (OT) 8-hour HEK293T Protein-Complementation Assay for Estrogen Receptor-beta/-beta Homodimer (AID 2283357);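 also: active means signal gain over DMSO baseline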
# Outline: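 Readout: increase in mean fluorescence intensity (nucleus for agonists; nucleus plus cytoplasm for antagonists) relative to DMSO, from a reporter-fragment complementation of human ER-beta LBD homodimer in HEK293T cells dosed 8 hours.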
# [6] = target: Nucleoli Translocation, AR (gene 367) (UniProt P10275); assay: UPITT_HCI_U2OS_AR_TIF2_Nucleoli_Agonist: University of Pittsburgh U2OS Androgen Receptor-Transcriptional Intermediary Factor 2 (AR-TIF2) Agonism High Content Imaging Assay for Nucleoli Translocation (AID 2283998)
# Outline: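 RFP-AR / GFP-TIF2 cells; cpds diluted in serum-free medium; single-point screen 20 uM final (0.2% DMSO), actives confirmed in triplicate; conc-response 0.195–50 uM final (0.5% DMSO). Readout: nucleolar red fluorescence, positive direction vs DMSO.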
# [7] = target: Ratio of Nucleoli Translocation and Cytoplasm, AR (gene 367) (UniProt P10275); assay: UPITT_HCI_U2OS_AR_TIF2_Nucleoli_Cytoplasm_Ratio_Antagonist: University of Pittsburgh U2OS Androgen Receptor-Transcriptional Intermediary Factor 2 (AR-TIF2) Antagonism High Content Imaging Assay for Ratio of Nucleoli Translocation and Cytoplasm (AID 2283999);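 also: antagonists lower the DHT-driven ratio of nucleolar to cytoplasmic red signal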
# Outline: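 Human osteosarcoma U2OS line, AR fused to RFP, coactivator TIF2 fused to GFP. Cpds 20 uM final, 0.2% DMSO (screen); 0.195–50 uM final, 0.5% DMSO (CRC). Endpoint: nucleoli/cytoplasm red signal ratio, DHT as baseline, loss-of-signal antagonist mode.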
# [8] = Tanguay_ZF_120hpf_EYE_legacy: (Legacy) Oregon State University Tanguay Lab 120 Hour Post-fertilization zebrafish Assay for Eye Malformation (AID 2283636)
# Outline: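 Dechorionated wild-type Tropical 5D zebrafish embryos were exposed statically from 6 hpf, one per well, to 120 hpf at 28C in sealed, foil-covered plates with 0.64% DMSO. Eye malformation was scored present/absent by brightfield microscopy against DMSO controls.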
# [9] = Tanguay_ZF_120hpf_TR_legacy: (Legacy) Oregon State University Tanguay Lab 120 Hour Post-fertilization zebrafish Assay for Touch Response (AID 2283667)
# Outline: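 Tropical 5D wild-type zebrafish embryos were exposed statically in sealed, foil-covered plates at 28C until 120 hpf, with 0.64% (vol/vol) final DMSO. Touch response was scored as present or absent; embryos that died were not scored.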
# [10] = target: human Protein Tyrosine Phosphatase Non-receptor Type 6 (PTPN6), PTPN6 (gene 5777) (UniProt P29350); assay: NVS_ENZ_hPTPN6: NovaScreen (NVS) Enzymatic Assay for human Protein Tyrosine Phosphatase Non-receptor Type 6 (PTPN6) (AID 2283210)
# Outline: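 Cell-free assay with recombinant PTPN6 expressed in SF9 cells, fluorescent substrate, product separated from substrate by electrophoretic mobility shift; read 1.33 hours after dosing. Primary screen in duplicate at 25 uM, actives retested in concentration series; DMSO baseline.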
# [11] = NVS_IC_rCaBTZCHL: NovaScreen (NVS) Ion Channel Assay for Calcium Channel, Type L, Benzothiazepine Site (CaBTZCHL) (AID 2283337)
# Outline: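 Scintillation counting of filter-bound radioligand gave the read-out, with reduced binding versus DMSO scored as activity. Membranes came from rat cortex and were read 1.5 h after compound addition. Chemicals were screened first in duplicate at 25 uM.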
# [12] = Tanguay_ZF_120hpf_CIRC_legacy: (Legacy) Oregon State University Tanguay Lab 120 Hour Post-fertilization zebrafish Assay for Circulatory Malformation (AID 2283651)
# Outline: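 Read-out: presence or absence of circulatory malformation at 120 hpf, scored by brightfield microscopy, fitted in the gain-of-signal direction against DMSO baseline. Wild-type 5D larvae were exposed from 6 hpf after enzymatic chorion removal.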
# [13] = STM_H9_OrnCyssISnorm_ratio: Stemina devTOX quickPredict H9 human embryonic stem cell (hESC)-based Assay for Ornithine (ORN):Cystine (CYSS) Ratio (AID 2283714)
# Outline: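 Undifferentiated H9 hESCs were exposed to compound for 72h with media and chemical replaced every 24h. Final 24-h conditioned media were deproteinized and analysed by UPLC-HRMS. ORN and CYSS peak areas were normalized to C13 internal standards and the ratio taken versus 0.1% DMSO.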
# [14] = Tanguay_ZF_120hpf_SNOU_legacy: (Legacy) Oregon State University Tanguay Lab 120 Hour Post-fertilization zebrafish Assay for Snout Malformation (AID 2283637)
# Outline: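 Tropical 5D wild-type zebrafish embryos, dechorionated with pronase at 4 hpf, were exposed singly from 6 hpf to 120 hpf statically at 28C in 0.64% DMSO. Snout malformation was scored present/absent by brightfield microscopy, fitted against DMSO.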
# [15] = target: Retinoic acid receptor alpha (Homo sapiens) (UniProt P10276); assay: NVS_NR_hRAR_Antagonist: NovaScreen (NVS) Nuclear Receptor Binding Assay for human Retinoic Acid Alpha Receptor Antagonism (RAR) (AID 2283358)
# Outline: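 Cell-free TR-FRET binding assay on extracted receptor protein, run in antagonist mode; signal read 2 hours after chemical dosing. Loss of signal was fitted relative to DMSO baseline. Screened at 25 uM in duplicate, actives followed up in concentration series.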
# [16] = target: Nucleoli Translocation, AR (gene 367) (UniProt P10275); assay: UPITT_HCI_U2OS_AR_TIF2_Nucleoli_Antagonist: University of Pittsburgh U2OS Androgen Receptor-Transcriptional Intermediary Factor 2 (AR-TIF2) Antagonism High Content Imaging Assay for Nucleoli Translocation (AID 2283997)
# Outline: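 U2OS cells expressing RFP-tagged human AR and GFP-tagged TIF2 were imaged by high-content fluorescence microscopy for red AR signal in the nucleolar region. Compounds were screened at 20 uM final (0.2% DMSO), with activity fitted relative to DHT as baseline.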
# [17] = Tanguay_ZF_120hpf_YSE_legacy: (Legacy) Oregon State University Tanguay Lab 120 Hour Post-fertilization zebrafish Assay for Yolk Sac Edema (AID 2283634)
# Outline: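 Binary brightfield scoring of yolk sac edema at 120 hpf; DMSO baseline, gain-of-signal fitting. Dechorionated 5D larvae, one per well, static exposure 6–120 hpf, 28C, 0.64% DMSO. Dead embryos not scored.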
# [18] = Tanguay_ZF_120hpf_TRUN_legacy: (Legacy) Oregon State University Tanguay Lab 120 Hour Post-fertilization zebrafish Assay for Truncated Body (AID 2283655)
# Outline: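 Whole-embryo zebrafish screen: dechorionated 5D embryos, static exposure 6–120 hpf, 28C, sealed foil-covered plates, 0.64% DMSO. Binary truncation call; gain of signal versus DMSO baseline.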
# [19] = Tanguay_ZF_120hpf_AXIS_legacy: (Legacy) Oregon State University Tanguay Lab 120 Hour Post-fertilization zebrafish Assay for Body Axis Malformation (AID 2283635);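 also: potency for an increased fraction of larvae scored with body axis malformation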
# Outline: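 Embryos: 5D wild-type, pronase-dechorionated 4 hpf; static exposure 6–120 hpf, 28C, sealed, dark, 1 embryo/well, 0.64% DMSO. 120 hpf axis malformation scored present/absent; dead embryos excluded. Analysed as gain of signal vs DMSO.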
# [20] = Tanguay_ZF_120hpf_SOMI_legacy: (Legacy) Oregon State University Tanguay Lab 120 Hour Post-fertilization zebrafish Assay for Somite Malformation (AID 2283647)
# Outline: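 Binary brightfield scoring of somite defects at 120 hpf in 5D wild-type larvae; one dechorionated embryo per well, static exposure from 6 hpf, 28C, sealed and dark. Final DMSO 0.64%; trimethyltin chloride 5uM positive control.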
smiles,measurement,setting,value
CCC1CO1 (configuration not stated),AC50,[1],inconclusive: 619 nM
CN(C)C(=N)N=C(N)N,AC50,[2],inconclusive: 24.1 µM
same,outcome,[3],inactive
CCN(C(=O)c1cc(C)cc(OC[C@H](C)Nc2ccncc2)c1)C(C)C,AC50,[4],inconclusive: 3.2 µM
N#Cc1ccc(C(c2ccc(C#N)cc2)n2cncn2)cc1,outcome,[5],inactive
same,outcome,[6],inactive
same,AC50,[7],inconclusive: 35.5 µM
CCCCCCCCCCCCCCCS(=O)(=O)Oc1ccccc1,AC50,[8],inconclusive: 72.1 µM
CC=C(C)C=CC=C(C)C,AC50,[1],active: 976 nM
C=CCc1ccc(OC)c(OC)c1,AC50,[9],inconclusive: 5.96 µM
Nc1ccc2c(c1)C(=O)c1ccccc1C2=O,AC50,[10],inconclusive: 11.7 µM
same,AC50,[9],inconclusive: 49 µM
C=C(C)C(=O)OCCC[Si](OC)(OC)OC,AC50,[1],inconclusive: 4960 nM
CC(O)COCC(C)O (configuration not stated),AC50,[11],inconclusive: 0.0757 µM
c1ccc(Oc2ccccc2)cc1,outcome,[11],inactive
CC(=O)S[C@H](C(=O)N[C@H]1Cc2ccccc2[C@H]2CCC[C@@H](C(=O)O)N2C1=O)C(C)C,AC50,[12],inconclusive: 25.9 µM
same,AC50,[13],inconclusive: 10 µM
COc1ccccc1OCC(O)CO (configuration not stated),AC50,[1],inconclusive: 25000 nM
Oc1ccccc1O,AC50,[10],inconclusive: 25 µM
same,AC50,[12],inconclusive: 27.6 µM
CN1CCCC1=O,AC50,[5],inconclusive: 50 µM
same,AC50,[14],inconclusive: 35.2 µM
CCCCOCCOCCO,outcome,[10],inactive
same,AC50,[5],inconclusive: 50 µM
same,AC50,[15],inconclusive: 734 nM
CCCCC(CC)COC(=O)c1ccc(O)cc1 (configuration not stated),AC50,[5],active: 0.91 µM
same,AC50,[2],active: 52.2 µM
same,outcome,[3],inactive
CO[Si](CCCNCCN)(OC)OC,AC50,[16],inconclusive: 50 µM
CC(O)CC(C)(C)O (configuration not stated),AC50,[9],inconclusive: 207 µM
O=C1OC(=O)C2C3C=CC(C3)C12 (configuration not stated),outcome,[10],inactive
same,outcome,[15],inactive
same,outcome,[14],inactive
CC(C)COC(=O)CCCCC(=O)OCC(C)C,AC50,[12],inconclusive: 28.1 µM
same,AC50,[9],inconclusive: 32.7 µM
CCCCCCCCCCCCCCO,outcome,[8],inactive
CC(C)CCO,outcome,[5],inactive
same,outcome,[17],inactive
same,AC50,[13],inconclusive: 0.638 µM
CCCCCCCCCC,AC50,[11],inconclusive: 25 µM
same,outcome,[12],inactive
same,AC50,[18],inconclusive: 202 µM
same,AC50,[13],inconclusive: 10 µM
COCCOCCOCCOC,outcome,[17],inactive
same,AC50,[19],inconclusive: 168 µM
same,AC50,[20],inconclusive: 202 µM
same,AC50,[12],inconclusive: 0.0106 µM

# Given bar-delimited: entries from further up
smiles | measurement | setting | value
CC(O)CC(C)(C)O (configuration not stated) | AC50 | [9] | inconclusive: 207 µM
O=C1OC(=O)C2C3C=CC(C3)C12 (configuration not stated) | outcome | [10] | inactive
